Data taken from patent US9657002B2, “Oxindole derivatives carrying an oxetane substituent and use thereof for treating vassopressin-related diseases” (AbbVie Deutschland GmbH & Co. KG, priority 2013, dated 2017).
At least one structure is not confirmed: it was looked up by name or label, or the drawing left a doubt.

The chains behind the UniProt entries cited, without tags or fusion partners.
UniProt P37288, whole entry: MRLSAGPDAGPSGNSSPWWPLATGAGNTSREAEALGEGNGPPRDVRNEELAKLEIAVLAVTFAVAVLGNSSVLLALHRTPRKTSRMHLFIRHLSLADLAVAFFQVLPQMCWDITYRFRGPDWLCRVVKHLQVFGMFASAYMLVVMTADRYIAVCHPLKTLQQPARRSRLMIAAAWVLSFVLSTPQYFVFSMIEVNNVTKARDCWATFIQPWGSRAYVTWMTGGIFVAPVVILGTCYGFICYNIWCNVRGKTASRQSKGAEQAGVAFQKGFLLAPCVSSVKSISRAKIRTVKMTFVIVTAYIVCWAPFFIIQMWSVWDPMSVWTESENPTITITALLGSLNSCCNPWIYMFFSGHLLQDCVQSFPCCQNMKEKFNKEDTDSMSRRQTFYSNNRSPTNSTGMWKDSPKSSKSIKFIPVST

Biological target: human vasopressin V1a receptor (Homo sapiens, UniProt P37288)
Assay: Vasopressin V1a receptor binding assay
Settings: selectivity quotient, human V1a vs human V1b

SMILES: CCOc1ncccc1[C@]1(NC(=O)N2CCC(N3CCN(C4COC4)CC3)CC2)C(=O)N(S(=O)(=O)c2ccc(OC)cc2OC)c2ccc(Cl)cc21 [Example 14, (S)—N-(5-chloro-1-((2,4-dimethoxyphenyl)sulfonyl)-3-(2-ethoxypyridin-3-yl)-2-oxoindolin-3-yl)-4-(4-(oxetan-3-yl)piperazin-1-yl)piperidine-1-carboxamide]
- Ki(h-V1a)/Ki(h-V1b): ++ (25-75)
